The subject of this experiment is HEK293A TEAD-LUC reporter. Kind of experiment: TEAD-luciferase reporter activity (YAP activation), robust Z score vs plate; higher = stronger YAP/TEAD activation. The following applies: 24 h.

SMILES strings stand for the structures. Counter-ions that a name gives are not always drawn. This is one part of the list. Repeats in this data set agree poorly, so a single value says little.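 The human kidney-derived cells carry a stably integrated construct of eight TEAD-binding elements driving luciferase, read by luminescence in a drug-repurposing library screen. A compound counts as a hit when its signal is more than five robust Z scores above the plate mean.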

For `O=c1oc(CCN2CCN(c3ccccc3)CC2)c(-c2ccc(Cl)cc2)o1`, the TEAD-luciferase reporter activity is, setting by setting: (compound concentration: 200 nM) inactive: -1.11; (compound concentration: 2 uM) inactive: 0.742; (compound concentration: 10 uM) inactive: -1.72.

As for `CO[C@@]1(NC(=O)C(C(=O)[O-])c2ccsc2)C(=O)N2C(C(=O)[O-])C(C)(C)S[C@@H]21` (stereo partly specified), the TEAD-luciferase reporter activity by setting is: (compound concentration: 200 nM) inactive: 1.58; (compound concentration: 10 uM) inactive: -0.338.

Consider `CO[C@@]1(NC(=O)C(C(=O)[O-])c2ccsc2)C(=O)N2C(C(=O)[O-])C(C)(C)S[C@@H]21` (stereo partly specified) [Temocillin sodium], for which the TEAD-luciferase reporter activity (compound concentration: 2 uM) is inactive: -1.95.

`COc1ccccc1C(=O)N1CCC2(CC1)NC(=O)c1ccccc1O2`: the TEAD-luciferase reporter activity reads like this: (compound concentration: 200 nM) inactive: -0.942; (compound concentration: 10 uM) inactive: 2.19.

With `CN1CCN(C2=Nc3cscc3/C(=C\C#N)c3cscc32)CC1` [tenilapine], the TEAD-luciferase reporter activity (compound concentration: 200 nM) was inactive: -1.4, the TEAD-luciferase reporter activity (compound concentration: 2 uM) is inactive: 0.312 and the TEAD-luciferase reporter activity (compound concentration: 10 uM) was active: 5.32.

Consider `C=CC(=O)Nc1cccc(Oc2nc(Nc3ccc(N4CCN(C)CC4)cc3)nc3ccsc23)c1`, for which the TEAD-luciferase reporter activity (compound concentration: 2 uM) is inactive: -0.395.

For the molecule `C=CC(=O)Nc1cccc(Oc2nc(Nc3ccc(N4CCN(C)CC4)cc3)nc3ccsc23)c1` [Olmutinib], the TEAD-luciferase reporter activity (compound concentration: 200 nM) is inactive: 1.62 and the TEAD-luciferase reporter activity (compound concentration: 10 uM) is inactive: 1.25.

Turning to `CC(C)CCNC(=O)[C@@H]1CCCN1C(=O)N(CCC(C)C)CC(=O)NO`, the TEAD-luciferase reporter activity was inactive: 1.73 (compound concentration: 200 nM), inactive: 1.51 (compound concentration: 2 uM) and inactive: 2.69 (compound concentration: 10 uM).

Consider `CC(N)C12CC3CC(CC(C3)C1)C2` (stereo unspecified) [Rimantadine hydrochloride], for which the TEAD-luciferase reporter activity (compound concentration: 2 uM) is inactive: -0.475.

On to `CC(N)C12CC3CC(CC(C3)C1)C2` (stereo unspecified), for which the TEAD-luciferase reporter activity is inactive: -1.85 (compound concentration: 200 nM) and inactive: -1.33 (compound concentration: 10 uM).

As for `CCCCN(CCCC)CCC(O)c1cc(-c2ccc(C(F)(F)F)cc2)nc(-c2ccc(C(F)(F)F)cc2)c1` (stereo unspecified), the TEAD-luciferase reporter activity was inactive: -1.2 (compound concentration: 200 nM), inactive: -1.21 (compound concentration: 2 uM) and inactive: -0.732 (compound concentration: 10 uM).

As to `O=C1NC(=O)C(Sc2ccc3ccccc3c2)S1` (stereo unspecified), the TEAD-luciferase reporter activity was inactive: 0.172 (compound concentration: 200 nM), inactive: 0.313 (compound concentration: 2 uM) and inactive: -0.978 (compound concentration: 10 uM).

Consider `CS(=O)(=O)Nc1cc2c(cc1Oc1ccccc1)C(=O)CC2`, for which the TEAD-luciferase reporter activity reads like this: (compound concentration: 200 nM) inactive: -0.151; (compound concentration: 2 uM) inactive: 0.209; (compound concentration: 10 uM) inactive: 0.937.

As for `NCCc1c[nH]c2ccc(OCC(=O)N[C@@H](Cc3ccc(O)cc3)C(=O)NCC(N)=O)cc12`, the TEAD-luciferase reporter activity runs as follows: (compound concentration: 200 nM) inactive: -2.1; (compound concentration: 2 uM) inactive: 0.502; (compound concentration: 10 uM) inactive: 3.43.

With `COc1cc(C(=O)N2CCN(Cc3c(-c4ccccc4)c4cc(Cl)ccc4[nH]c3=O)CC2)cc(OC)c1OC`, the TEAD-luciferase reporter activity is, setting by setting: (compound concentration: 200 nM) inactive: -0.263; (compound concentration: 2 uM) inactive: 0.0458; (compound concentration: 10 uM) inactive: 0.519.

Take `CN(C)C(=O)c1ccc(S(=O)(=O)c2ccc(NC(=O)[C@@](C)(O)C(F)(F)F)c(Cl)c2)cc1`: the TEAD-luciferase reporter activity by setting is: (compound concentration: 200 nM) inactive: 0.497; (compound concentration: 2 uM) inactive: -0.95; (compound concentration: 10 uM) inactive: 1.34.

With `O=C(Nc1ccc([N+](=O)[O-])cc1Cl)c1cc(Cl)ccc1O` [Niclosamide], the TEAD-luciferase reporter activity (compound concentration: 200 nM) is inactive: 2.95, the TEAD-luciferase reporter activity (compound concentration: 2 uM) is inactive: -3.73 and the TEAD-luciferase reporter activity (compound concentration: 10 uM) was inactive: -3.25.

For the origin of these results see the supplement of paper PMC10735217.
